A short description of the data set: general procedure: solution-phase peptide synthesis. The note with it: conjugation step, based on the drug compound A, trifluoroacetate.

As to H-Gly-Gly-Phe-Gly-drug compound A, the conjugation yield came to 90%.

(Values after patent US20030166513 (published 2003).)
